In article PMC5996148 one finds binding signal data, which are given here for one sequence.

“And” between values parts separate entries of the source, which are not always exact repeats. Equal entries are not always repeated. Some of the results follow.

Common to all, as to experiment: protein microarray (ProtoArray v5.0), streptavidin-Alexa Fluor 647
Conditions in all cases: 3'-biotin; 20 mM Tris (pH 7.5), 5 mM MgCl2, 100 mM KCl, 0.1% Tween-20, A/T-rich and random oligonucleotide blockers; temperature not stated; high values mean tight binding

The test system of assay [1] is GRIP and coiled-coil domain-containing protein 1 (human).
The test system of assay [2] is GSDMDC1 (human).
The subject of assay [3] is GSTA1 (human).
In assay [4] the test system is GSTA3 (human).
For assay [5], the system named is GSTM3 (human).
Assay [6] relates to GSTO1 (human).
Assay [7] relates to GSTO2 (human).
Assay [8] has as its system GSTP1 (human).
Assay [9] relates to GSTZ1 (human).
The test system of assay [10] is GTF2E1 (human).

Turning to “GGGAGGCTGAGGCAGG [G4-1 biotinylated (PQS2)]”, the binding signal was -0.236 z-score in [1]; -0.327 z-score in [2]; -0.341 z-score in [3]; -0.332 z-score in assay [4]; -0.353 z-score and -0.276 z-score in [5]; -0.275 z-score in assay [6]. Moreover, the binding signal in assay [7] was -0.282 z-score; in assay [8] it was -0.32 z-score; in assay [9] it was -0.325 z-score; in assay [10], -0.287 z-score.
